Source: the supplement of paper PMC12889115
The list shows a part of the results. These are raw signals, not scaled to a control.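 In the initial screen, polymyxin B was used at a concentration that permeabilizes Salmonella's outer membrane but not its inner membrane. Maximum growth was set by DMSO wells with or without polymyxin B. Since plates varied, data were ranked per plate, and compounds giving the lowest OD600 advanced as hits.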

System: Salmonella enterica serovar Typhimurium SL1344
Test: bacterial growth OD600 after 18 h with compound and polymyxin B; higher = more bacterial growth (less inhibition)
Details: 50 µM, Mueller-Hinton broth

SMILES | bacterial growth OD600 (polymyxin B 0.75 µg/mL) | bacterial growth OD600 (polymyxin B 1 µg/mL)
COc1ccc(C(C)N(C)C(=O)CCC2(Cc3ccc(C)cc3)CCC(=O)N2)cc1 (stereo unspecified) | 0.918 | –
COCCC(=O)N1CCCC(N2CCN(Cc3ccc4c(c3)OCO4)CC2)C1 (stereo unspecified) | – | 0.861
CC(C)(C)C(=O)Nc1ccnn1C1CCN(C(=O)Cc2cccnc2)CC1 | – | 0.956
COCC1CCN(C(=O)c2coc(COc3cccc(C(F)(F)F)c3)n2)C1 (stereo unspecified) | – | 0.975
COCCN1CCCC2(CCN(Cc3cccc4nonc34)C2)C1 (stereo unspecified) | – | 0.87
Cc1oc(-c2ccccc2NC(=O)CC2CCCC2)nc1CNC(=O)Cn1c(=O)oc2ccccc21 | 0.781 | –
CS(=O)(=O)N1CCC(Oc2ccc(C(=O)NC3CCCCC3)cc2Cl)CC1 | – | 1.05
O=C(c1ccco1)N(C1CC1)C(Cc1ccccc1)C1CCN(Cc2cc(F)ccc2F)CC1 (stereo unspecified) | 0.002 | –
Fc1cccc(CN2CCCC(c3nc(-c4ccncc4)ncc3-c3ccccc3)C2)c1F (stereo unspecified) | 0.005 | –
CC(NC1CCN(c2ccc(CC(=O)N3CCC(O)CC3)cc2)CC1)c1cccc2ccccc12 (stereo unspecified) | 0.794 | –
O=C(c1cnn(Cc2ccccc2)c1)N1CCCC(Nc2ccc3c(c2)OCCO3)C1 (stereo unspecified) | – | 0.941
CCCCN(C)c1ccc(C(=O)N2CCCN(c3ncccn3)CC2)cn1 | 0.782 | –
Cc1cc(C)n(-c2ccc(C(=O)NCC3Cc4cc(-c5cnccn5)cc(Cl)c4O3)cc2)n1 (stereo unspecified) | 0.708 | –
COc1ccc(CCc2nnc(CCC(=O)NC(C)c3ccc(F)cc3)o2)cc1 (stereo unspecified) | – | 0.884
COc1ccc(-c2noc(CN(C)Cc3cccc4cnccc34)n2)c(OC)c1OC | – | 0.896
COc1ccc(F)c(CN2CCCC(CCC(=O)N3CCOCC3)C2)c1 (stereo unspecified) | – | 0.922

An excerpt from above in order of count of non-hydrogen atoms, low to high:
SMILES | bacterial growth OD600 (polymyxin B 0.75 µg/mL) | bacterial growth OD600 (polymyxin B 1 µg/mL)
COCCN1CCCC2(CCN(Cc3cccc4nonc34)C2)C1 (stereo unspecified) | – | 0.87
CC(C)(C)C(=O)Nc1ccnn1C1CCN(C(=O)Cc2cccnc2)CC1 | – | 0.956
COCCC(=O)N1CCCC(N2CCN(Cc3ccc4c(c3)OCO4)CC2)C1 (stereo unspecified) | – | 0.861
COc1ccc(-c2noc(CN(C)Cc3cccc4cnccc34)n2)c(OC)c1OC | – | 0.896
O=C(c1ccco1)N(C1CC1)C(Cc1ccccc1)C1CCN(Cc2cc(F)ccc2F)CC1 (stereo unspecified) | 0.002 | –
CC(NC1CCN(c2ccc(CC(=O)N3CCC(O)CC3)cc2)CC1)c1cccc2ccccc12 (stereo unspecified) | 0.794 | –
Cc1oc(-c2ccccc2NC(=O)CC2CCCC2)nc1CNC(=O)Cn1c(=O)oc2ccccc21 | 0.781 | –

Following part:

SMILES | bacterial growth OD600 (polymyxin B 0.75 µg/mL) | bacterial growth OD600 (polymyxin B 1 µg/mL)
O=C1CCCCN1CCC(=O)N1CCCC(CCc2ccccc2F)C1 (stereo unspecified) | 0.95 | –
CSc1nc(C(=O)N2CCc3onc(-c4ccc(Cl)cc4)c3C2)cs1 | 0.004 | –
Cc1cccn2c(CNC(C)c3ccccc3Cl)c(C(=O)N3CCCCC3)nc12 (stereo unspecified) | 0.003 | –
O=C(Nc1ccccc1Oc1cccnc1)C1CCCN(C2Cc3ccccc3C2)C1 (stereo unspecified) | – | 0.007
CCc1csc(CNC(=O)c2ccc(N3CCCC3c3ccccn3)nc2)n1 (stereo unspecified) | 0.803 | –
CO[C@H]1[C@H](NC(=O)c2ccccn2)c2ccccc2C12CCN(C(=O)c1ccc(CC(C)C)cc1)CC2 | 0.001 | –
O=C(NCc1ccccc1OC(F)(F)F)C1CC(Cc2cccc(F)c2)=NO1 (stereo unspecified) | 0.647 | –
CSc1ccc(CC2(CCC(=O)N3CCN(c4nc(C)cnc4C)CC3)CCC(=O)N2)cc1 (stereo unspecified) | 0.731 | –
C=C(C)CNCC1(O)CCCN(Cc2cccc(F)c2F)C1=O (stereo unspecified) | – | 0.931
CCc1cc(C(=O)N2CCCC(c3nc(C)ncc3-c3cccc(C)c3)C2)n(C)n1 (stereo unspecified) | 0.832 | –
CC(C)N1CCN(c2nc3nonc3nc2NC2CCCC2)CC1 | – | 0.87
CO[C@H]1[C@H](NC(=O)c2ccncc2)c2ccccc2C12CCN(C(=O)c1csc(C(C)=O)c1)CC2 | 0.867 | –
CCc1nc2cc(C(=O)N(C)C3CCCCC3)cc(NC(=O)c3ccccc3OC)c2n1C | 0.834 | –
CC(C)OCCCNC(=O)CC1C(=O)NCCN1Cc1cccc(F)c1F (stereo unspecified) | – | 0.847
CC[C@H](C)[C@H](NC1CCN(c2ccc(CC(=O)N3CCC[C@H]3C(=O)OC)cc2)CC1)C(=O)OC | 0.753 | –
